The data set in a line: solid-phase peptide synthesis. The note with it: whole synthesis.

Plain letter strings leave the end groups untold.

Turning to HSQGTFTSDYSKYLDSRRAQDFVQWLMNTGPSSGAPPPS, the “final HPLC purity” value (RP-HPLC (214 nm or 220 nm), MALDI or ESI mass spectrometry, scale of the general procedure 0.2 mmole (Boc), 0.1 mmol (Fmoc)) was “greater than 95%”. Moreover, for the setting “scale 0.2 mmol”, the isolated mass amounted to 198.1 mg.

Source of the values: US10232020B2 (priority 2014, dated 2019).
